# Measurements published in the supplement of paper PMC12819154, “High-throughput peptide-centric local stability assay extends protein–ligand identification to membrane proteins, tissues and bacteria” (Nature Structural & Molecular Biology, 2025).
# Protein sequences, listed by entry. Tags and fused reporters are not part of them. Lines headed by an entry give the natural chain unless they say otherwise; changes in a name come on top.
# UniProt Q9WTJ8: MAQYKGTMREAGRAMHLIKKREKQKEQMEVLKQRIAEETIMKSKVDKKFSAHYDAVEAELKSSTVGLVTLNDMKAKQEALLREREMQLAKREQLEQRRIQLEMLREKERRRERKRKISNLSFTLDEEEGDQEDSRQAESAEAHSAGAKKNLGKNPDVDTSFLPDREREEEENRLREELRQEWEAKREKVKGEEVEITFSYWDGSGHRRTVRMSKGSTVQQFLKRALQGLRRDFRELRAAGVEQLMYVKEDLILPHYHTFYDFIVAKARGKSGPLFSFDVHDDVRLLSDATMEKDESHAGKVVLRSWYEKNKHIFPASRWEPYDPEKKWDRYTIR
# UniProt Q9QYI6: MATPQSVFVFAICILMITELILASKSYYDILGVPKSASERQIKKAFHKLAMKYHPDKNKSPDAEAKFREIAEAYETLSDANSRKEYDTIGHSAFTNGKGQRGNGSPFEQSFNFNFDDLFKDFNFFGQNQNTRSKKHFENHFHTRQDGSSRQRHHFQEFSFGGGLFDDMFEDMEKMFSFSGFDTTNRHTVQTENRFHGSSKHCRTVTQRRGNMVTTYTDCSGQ
# UniProt Q9QY76, whole entry: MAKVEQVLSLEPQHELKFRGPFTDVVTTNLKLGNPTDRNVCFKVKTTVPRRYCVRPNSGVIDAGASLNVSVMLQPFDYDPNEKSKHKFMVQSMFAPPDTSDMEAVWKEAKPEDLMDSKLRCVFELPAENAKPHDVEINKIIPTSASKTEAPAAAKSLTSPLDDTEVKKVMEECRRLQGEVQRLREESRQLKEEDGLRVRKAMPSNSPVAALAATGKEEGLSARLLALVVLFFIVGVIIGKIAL
# UniProt Q9QXL8, whole entry: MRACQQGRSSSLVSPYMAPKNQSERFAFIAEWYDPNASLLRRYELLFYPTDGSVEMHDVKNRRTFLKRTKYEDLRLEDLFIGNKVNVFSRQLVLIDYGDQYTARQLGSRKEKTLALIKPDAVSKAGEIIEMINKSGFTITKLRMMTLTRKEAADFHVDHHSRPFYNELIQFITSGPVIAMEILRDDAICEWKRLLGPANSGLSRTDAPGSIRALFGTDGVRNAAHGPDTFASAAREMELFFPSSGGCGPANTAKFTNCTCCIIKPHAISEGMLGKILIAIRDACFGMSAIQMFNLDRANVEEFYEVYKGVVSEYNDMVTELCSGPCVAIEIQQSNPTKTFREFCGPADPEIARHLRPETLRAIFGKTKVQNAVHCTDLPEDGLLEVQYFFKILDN
# UniProt Q9R0Z9: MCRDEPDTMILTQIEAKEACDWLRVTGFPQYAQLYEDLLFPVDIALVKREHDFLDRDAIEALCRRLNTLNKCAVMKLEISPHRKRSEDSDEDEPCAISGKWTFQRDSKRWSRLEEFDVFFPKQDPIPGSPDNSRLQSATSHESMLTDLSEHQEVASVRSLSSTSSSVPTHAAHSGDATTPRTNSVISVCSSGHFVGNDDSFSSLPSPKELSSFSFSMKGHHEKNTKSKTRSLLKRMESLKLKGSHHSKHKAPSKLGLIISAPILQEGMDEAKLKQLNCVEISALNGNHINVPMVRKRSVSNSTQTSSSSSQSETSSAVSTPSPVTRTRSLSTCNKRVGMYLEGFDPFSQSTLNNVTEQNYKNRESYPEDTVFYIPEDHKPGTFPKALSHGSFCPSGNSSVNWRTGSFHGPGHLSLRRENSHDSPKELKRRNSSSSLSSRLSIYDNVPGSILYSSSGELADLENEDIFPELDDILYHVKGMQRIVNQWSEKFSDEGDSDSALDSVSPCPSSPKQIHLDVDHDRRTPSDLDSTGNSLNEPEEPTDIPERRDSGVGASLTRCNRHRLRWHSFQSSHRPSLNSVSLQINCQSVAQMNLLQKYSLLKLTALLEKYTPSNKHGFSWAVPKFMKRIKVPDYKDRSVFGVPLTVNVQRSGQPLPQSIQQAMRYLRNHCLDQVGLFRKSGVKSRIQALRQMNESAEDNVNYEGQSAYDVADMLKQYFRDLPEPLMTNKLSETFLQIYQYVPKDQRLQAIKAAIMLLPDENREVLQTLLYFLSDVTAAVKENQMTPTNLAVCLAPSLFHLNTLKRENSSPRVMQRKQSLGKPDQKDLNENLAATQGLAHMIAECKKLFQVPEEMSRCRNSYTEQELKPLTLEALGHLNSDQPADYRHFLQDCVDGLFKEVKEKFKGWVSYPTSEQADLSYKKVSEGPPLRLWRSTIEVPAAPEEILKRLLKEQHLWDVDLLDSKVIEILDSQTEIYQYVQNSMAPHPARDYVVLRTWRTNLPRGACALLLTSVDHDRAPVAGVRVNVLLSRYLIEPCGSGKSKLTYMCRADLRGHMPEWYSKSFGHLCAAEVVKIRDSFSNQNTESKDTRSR
# UniProt Q9WUP7, whole entry: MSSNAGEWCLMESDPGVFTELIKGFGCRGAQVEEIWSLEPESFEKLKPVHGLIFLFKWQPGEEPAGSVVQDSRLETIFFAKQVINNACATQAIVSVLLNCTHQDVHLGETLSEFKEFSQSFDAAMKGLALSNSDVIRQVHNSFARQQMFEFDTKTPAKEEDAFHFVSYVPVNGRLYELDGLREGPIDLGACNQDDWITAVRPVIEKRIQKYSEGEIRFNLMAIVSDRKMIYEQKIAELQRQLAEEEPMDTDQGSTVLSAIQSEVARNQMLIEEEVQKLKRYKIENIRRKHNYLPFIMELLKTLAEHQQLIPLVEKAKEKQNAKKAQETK
# UniProt Q9QYK5: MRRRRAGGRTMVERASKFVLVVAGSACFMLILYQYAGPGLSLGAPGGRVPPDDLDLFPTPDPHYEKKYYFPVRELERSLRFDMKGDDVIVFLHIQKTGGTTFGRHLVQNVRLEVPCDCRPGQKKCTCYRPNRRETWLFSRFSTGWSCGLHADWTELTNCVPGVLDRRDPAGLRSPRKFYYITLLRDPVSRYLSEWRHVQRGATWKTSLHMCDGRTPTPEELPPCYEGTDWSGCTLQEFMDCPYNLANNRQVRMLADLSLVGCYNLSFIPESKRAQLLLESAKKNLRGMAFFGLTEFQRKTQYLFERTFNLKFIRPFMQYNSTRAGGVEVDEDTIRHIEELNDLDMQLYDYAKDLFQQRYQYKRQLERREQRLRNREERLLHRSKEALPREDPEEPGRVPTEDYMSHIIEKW
# UniProt Q9R1P4: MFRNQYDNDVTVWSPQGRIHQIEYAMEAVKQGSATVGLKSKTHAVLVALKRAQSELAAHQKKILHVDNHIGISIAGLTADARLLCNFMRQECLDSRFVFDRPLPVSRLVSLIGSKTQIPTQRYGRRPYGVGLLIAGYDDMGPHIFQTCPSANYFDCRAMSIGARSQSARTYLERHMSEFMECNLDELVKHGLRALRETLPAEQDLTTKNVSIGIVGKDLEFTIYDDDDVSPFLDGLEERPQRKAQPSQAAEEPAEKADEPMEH
# UniProt Q9QXN3: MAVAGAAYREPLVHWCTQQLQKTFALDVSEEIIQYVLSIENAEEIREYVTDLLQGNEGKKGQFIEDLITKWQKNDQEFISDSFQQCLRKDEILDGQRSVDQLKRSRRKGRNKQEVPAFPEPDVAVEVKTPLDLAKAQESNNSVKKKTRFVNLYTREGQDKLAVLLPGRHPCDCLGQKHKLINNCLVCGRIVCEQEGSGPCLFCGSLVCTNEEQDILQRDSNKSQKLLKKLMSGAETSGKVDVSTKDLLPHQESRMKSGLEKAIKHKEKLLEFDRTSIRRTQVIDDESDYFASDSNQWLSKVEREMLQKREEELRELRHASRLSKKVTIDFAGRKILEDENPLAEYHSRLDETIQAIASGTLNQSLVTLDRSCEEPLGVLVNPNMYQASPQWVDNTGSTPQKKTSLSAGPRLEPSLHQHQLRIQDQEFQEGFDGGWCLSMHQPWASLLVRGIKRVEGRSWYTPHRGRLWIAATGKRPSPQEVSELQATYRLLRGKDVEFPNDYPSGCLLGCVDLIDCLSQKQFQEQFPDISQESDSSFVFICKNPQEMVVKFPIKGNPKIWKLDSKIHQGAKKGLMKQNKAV
# The other results are listed elsewhere or left out. Small differences around the control level are noise.
# Compound: CN[C@@H]1C[C@H]2O[C@@](C)([C@@H]1OC)n1c3ccccc3c3c4c(c5c6ccccc6n2c5c31)C(=O)NC4 [staurosporine]
# Test: log2 fold change of tryptic peptide abundance, ligand vs vehicle (limited proteolysis) (log2 ratio); higher = more trypsin-susceptible (destabilized)
# Details: ligand concentration: 20 uM; sample: mouse liver crude lysate; replicate design: treated separately
row,Target,log2 fold change
1,"UniProt Q9WTJ8 (peptide sequence: FSAHYDAVEAELK, peptide start residue: 49)",-0.215
2,"UniProt Q9QYI6 (peptide sequence: KEYDTIGHSAFTNGK, peptide start residue: 84)",0.0396
3,"UniProt Q9QY76 (peptide sequence: AKVEQVLSLEPQHELK, peptide start residue: 2)",-0.342
4,"UniProt Q9QXL8 (peptide sequence: SSSLVSPYMAPK, peptide start residue: 9)",0.152
5,"UniProt Q9R0Z9 (peptide sequence: ALSHGSFCPSGNSSVNWR, peptide start residue: 386)",-0.113
6,"UniProt Q9WUP7 (peptide sequence: GLALSNSDVIR, peptide start residue: 127)",-0.241
7,"UniProt Q9QYK5 (peptide sequence: HLVQNVR, peptide start residue: 105)",-0.058
8,"UniProt Q9R1P4 (peptide sequence: HMSEFMECNLDELVK, peptide start residue: 175)",0.248
9,"UniProt Q9QXN3 (peptide sequence: KTSLSAGPR, peptide start residue: 402)",-0.618
